At least one structure is not confirmed: it was looked up by name or label, or the drawing left a doubt.
System: IGR-Heu tumor cells
Experiment: Proteasome inhibition: CTL recognition (TNFβ release) of inhibitor-treated IGR-Heu tumor cells
Type: cell-based, human
Details: FIG. 4A
Description: FIG. 4: Processing of the preprocalcitonin16-25 peptide is proteasome- and TAP-independent. A. IGR-Heu target cells were incubated for 2 h at 37° C. in the presence or absence of the proteasome-specific inhibitor epoxomicin, and then Heu161 cells were added. The autologous Heu127 clone, recognizing on IGR-Heu a proteasome-dependent mutated α-actinin-4 peptide, was included as a positive control. TNFβ released in medium after 24 h of culture was measured as above. B. 293-EBNA cells were cotransfected with pCEP4 containing either cDNA 150 (upper panel) or the mutated α-actinin-4 cDNA (lower panel), with pcDNA3.1 containing an HLA-A*0201 construct, and with various amounts of vector pBJi-neo containing IPC47 cDNA. CTL clones Heu161 (upper panel) or Heu127 (lower panel) were then added. Controls included 293-EBNA cells transfected with HLA-A2 or pBJi-neo-IPC47 alone, and incubation of transfectants with either preprocalcitonin or α-actinin-4 peptides. Data shown are representative of four independent experiments.
TNFβ was detected by measuring the cytotoxicity of the culture medium on TNF-sensitive WEHI-164c13 cells with a MTT colorimetric assay (ESPEVIK & NISSEN-MEYER, J Immunol Methods, 95, 99-105, 1986).
For proteasomes and SP inhibition, 10^6 tumor cells were resuspended in 300 μl of media in the presence or absence of specific inhibitors. […]

CC[C@H](C)[C@H](NC(=O)[C@H]([C@@H](C)CC)N(C)C(C)=O)C(=O)N[C@H](C(=O)N[C@@H](CC(C)C)C(=O)[C@@]1(C)CO1)[C@@H](C)O [epoxomicin]
effect on stimulation of CTL clone Heu127 (mutated α-actinin-4 peptide): strongly inhibited
